# In the supplement of paper PMC8728848:
# The list shows a part of the results.
# B1: PX9961M-bvu-482-23-482 (Bacteroides vulgatus) (protein)
# chain: WLDLAPSTQVDTETSINVLSDIEFTLNGIYSTMQSSDAYSGRLVYYGDVTGDDMQAVSSTKRTGNYYRFNFTKDNGPSSHWSYLYSIIQNCNLILMNVDKLSIDEDETEYKNDLKGQALAIRGMALFDLTRIFGYPYLKDNGASLGVPIVKELSTIDSKPARNTVAECYTEIISDLKNSTELLSGDFNKGKVNRWAAMTLLSRVYLYKGEYNEALTMAENAIKGAEKEGYALWTNEEYPTAWGNDASASNPGEILFEIVNLTTDSPGKESMGYLNSYNGYDDMCITCSFYQLLKKDPKDVRLKILSFDKKYYAYVNKYQPQQGENITDANIPLIRLSEAYLNAAEAAVQTGDNAKAVKYLNSIVQRANPENSVEGKTLTLENVLDERRKELVAEGHRMYDVIRNGMTVKRIDVKDSDINKTKHNTAYMEYDWNFHKILLPIPKKEMDANPNMKQNPGYVD
# Columns and labels:
# Test in all cases: glycan array binding signal (z-score within array); higher = stronger binding
# Settings in all cases: glycan notation: IUPAC condensed, linker removed
# [1] = target: Neu5Ac(a2-3)Gal(b1-4)GlcNAc(b1-6)GalNAc
# Summary of the method: (§1)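 The binding signal is a Z-score computed within each array. Data were drawn from 3228 arrays in the Consortium for Functional Glycomics database, restricted to those with a known protein sequence. Scores were averaged over arrays of the same protein sequence at different concentrations or buffers, and over linkers, and negative values can be taken as non-binding.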
# [2] = target: Neu5Ac(a2-3)Gal(b1-4)GlcNAc(b1-6)[Gal(b1-3)]GalNAc
# Summary of the method: as §1
# [3] = target: Neu5Ac(a2-3)Gal(b1-4)GlcNAc(b1-6)[Neu5Ac(a2-3)Gal(b1-3)]GalNAc
# Summary of the method: as §1
# [4] = target: Neu5Ac(a2-3)Gal(b1-4)GlcNAc6S
# Summary of the method: as §1
# [5] = target: Neu5Ac(a2-3)Gal(b1-4)[Fuc(a1-3)]GlcNAc
# Summary of the method: as §1
# [6] = target: Neu5Ac(a2-3)Gal(b1-4)[Fuc(a1-3)]GlcNAc(b1-2)Man
# Summary of the method: as §1
# [7] = target: Neu5Ac(a2-3)Gal(b1-4)[Fuc(a1-3)]GlcNAc(b1-3)Gal
# Summary of the method: as §1
# [8] = target: Neu5Ac(a2-3)Gal(b1-4)[Fuc(a1-3)]GlcNAc(b1-3)Gal(b1-4)GlcNAc
# Summary of the method: as §1
# [9] = target: Neu5Ac(a2-3)Gal(b1-4)[Fuc(a1-3)]GlcNAc(b1-3)Gal(b1-4)[Fuc(a1-3)]GlcNAc(b1-3)Gal(b1-4)[Fuc(a1-3)]GlcNAc
# Summary of the method: as §1
# [10] = target: Neu5Ac(a2-3)Gal(b1-4)[Fuc(a1-3)]GlcNAc(b1-3)GalNAc
# Summary of the method: as §1
# [11] = target: Neu5Ac(a2-3)Gal(b1-4)[Fuc(a1-3)]GlcNAc(b1-6)[Gal(b1-3)]GalNAc
# Summary of the method: as §1
# [12] = target: Neu5Ac(a2-3)Gal(b1-4)[Fuc(a1-3)]GlcNAc(b1-6)[Neu5Ac(a2-3)Gal(b1-3)]GalNAc
# Summary of the method: as §1
# [13] = target: Neu5Ac(a2-3)Gal(b1-4)[Fuc(a1-3)]GlcNAc6S
# Summary of the method: as §1
# [14] = target: Neu5Ac(a2-3)Gal6S(b1-4)GlcNAc
# Summary of the method: as §1
# [15] = target: Neu5Ac(a2-3)Gal6S(b1-4)[Fuc(a1-3)]GlcNAc
# Summary of the method: as §1
# Neu5Ac(a2-3)GalNAc = target: Neu5Ac(a2-3)GalNAc
# Summary of the method: as §1
# [16] = target: Neu5Ac(a2-3)GalNAc(b1-4)GlcNAc
# Summary of the method: as §1
# [17] = target: Neu5Ac(a2-3)[GalNAc(b1-4)]Gal(b1-4)Glc
# Summary of the method: as §1
# [18] = target: Neu5Ac(a2-3)[GalNAc(b1-4)]Gal(b1-4)GlcNAc
# Summary of the method: as §1
# [19] = target: Neu5Ac(a2-3)[GalNAc(b1-4)]Gal(b1-4)GlcNAc(b1-3)GalNAc
# Summary of the method: as §1
# [20] = target: Neu5Ac(a2-3)[Neu5Ac(a2-6)]GalNAc
# Summary of the method: as §1
# Neu5Ac(a2-6)Gal = target: Neu5Ac(a2-6)Gal
# Summary of the method: as §1
# [21] = target: Neu5Ac(a2-6)Gal(b1-3)GlcNAc(b1-3)[Gal(b1-4)GlcNAc(b1-6)]Gal(b1-4)Glc
# Summary of the method: as §1
# Neu5Ac(a2-6)Gal(b1-4)Glc = target: Neu5Ac(a2-6)Gal(b1-4)Glc
# Summary of the method: as §1
# [22] = target: Neu5Ac(a2-6)Gal(b1-4)GlcNAc
# Summary of the method: as §1
# [23] = target: Neu5Ac(a2-6)Gal(b1-4)GlcNAc(b1-2)Man
# Summary of the method: as §1
# [24] = target: Neu5Ac(a2-6)Gal(b1-4)GlcNAc(b1-2)Man(a1-3)Man(b1-4)GlcNAc(b1-4)GlcNAc
# Summary of the method: as §1
# [25] = target: Neu5Ac(a2-6)Gal(b1-4)GlcNAc(b1-2)Man(a1-3)[Gal(b1-4)GlcNAc(b1-2)Man(a1-6)]Man(b1-4)GlcNAc(b1-4)GlcNAc
# Summary of the method: as §1
# [26] = target: Neu5Ac(a2-6)Gal(b1-4)GlcNAc(b1-2)Man(a1-3)[GlcNAc(b1-2)Man(a1-6)]Man(b1-4)GlcNAc(b1-4)GlcNAc
# Summary of the method: as §1
# [27] = target: Neu5Ac(a2-6)Gal(b1-4)GlcNAc(b1-2)Man(a1-3)[GlcNAc(b1-4)][Neu5Ac(a2-6)Gal(b1-4)GlcNAc(b1-2)Man(a1-6)]Man(b1-4)GlcNAc(b1-4)GlcNAc
# Summary of the method: as §1
# [28] = target: Neu5Ac(a2-6)Gal(b1-4)GlcNAc(b1-2)Man(a1-3)[Man(a1-6)]Man(b1-4)GlcNAc(b1-4)GlcNAc
# Summary of the method: as §1
binder,measurement,setting,value
B1,glycan array binding signal (z-score),[1],0.396
same,glycan array binding signal (z-score),[2],0.468
same,glycan array binding signal (z-score),[3],-0.693
same,glycan array binding signal (z-score),[4],-0.697
same,glycan array binding signal (z-score),[5],-0.48
same,glycan array binding signal (z-score),[6],-0.837
same,glycan array binding signal (z-score),[7],-0.041
same,glycan array binding signal (z-score),[8],-0.063
same,glycan array binding signal (z-score),[9],0.485
same,glycan array binding signal (z-score),[10],0.703
same,glycan array binding signal (z-score),[11],-0.329
same,glycan array binding signal (z-score),[12],0.32
same,glycan array binding signal (z-score),[13],0.572
same,glycan array binding signal (z-score),[14],0.074
same,glycan array binding signal (z-score),[15],-0.793
same,glycan array binding signal (z-score),Neu5Ac(a2-3)GalNAc,-0.65
same,glycan array binding signal (z-score),[16],0.171
same,glycan array binding signal (z-score),[17],0.405
same,glycan array binding signal (z-score),[18],-0.289
same,glycan array binding signal (z-score),[19],0.696
same,glycan array binding signal (z-score),[20],-0.188
same,glycan array binding signal (z-score),Neu5Ac(a2-6)Gal,0.409
same,glycan array binding signal (z-score),[21],0.884
same,glycan array binding signal (z-score),Neu5Ac(a2-6)Gal(b1-4)Glc,0.133
same,glycan array binding signal (z-score),[22],0.329
same,glycan array binding signal (z-score),[23],-0.674
same,glycan array binding signal (z-score),[24],-0.834
same,glycan array binding signal (z-score),[25],0.004
same,glycan array binding signal (z-score),[26],-0.203
same,glycan array binding signal (z-score),[27],-0.588
same,glycan array binding signal (z-score),[28],-0.014

# 2 records picked at random from the list so far, as already listed:
binder,measurement,setting,value
B1,glycan array binding signal (z-score),[5],-0.48
same,glycan array binding signal (z-score),[12],0.32
